Results are given in words; binding and its absence hold for the method and conditions named. A result given as binding can be weak or reduced; the word gives no strength. Sequences can lack the tags named with a protein.

Amino acid sequences for entries named in this document (tags omitted). A change or cut given only in a name is not applied to a line headed by its entry.
UniProt P61586: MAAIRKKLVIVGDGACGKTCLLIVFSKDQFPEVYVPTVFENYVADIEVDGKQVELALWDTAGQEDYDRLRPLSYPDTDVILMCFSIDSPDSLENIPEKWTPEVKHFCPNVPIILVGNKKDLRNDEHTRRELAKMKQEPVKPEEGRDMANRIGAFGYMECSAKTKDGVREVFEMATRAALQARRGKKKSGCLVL
UniProt P60953: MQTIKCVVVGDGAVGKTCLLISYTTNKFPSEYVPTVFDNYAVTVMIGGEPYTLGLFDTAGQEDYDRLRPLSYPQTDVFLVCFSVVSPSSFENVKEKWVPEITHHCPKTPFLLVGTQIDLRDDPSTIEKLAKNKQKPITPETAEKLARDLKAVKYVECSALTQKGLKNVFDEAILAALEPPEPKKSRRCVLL

B1: RBD_(ROCK2)-CFP-FT (domain or fragment, UniProt O75116 964-1045)
chain: KDATIASLEETNRTLTSDVANLANEKEELNNKLKDVQEQLSRLKDEEISAAAIKAQFEKQLLTERTLKTQAVNKLAEIMNRK
B2: RBD_(MRCKβ)-CFP-FT (domain or fragment, UniProt Q9Y5S2 1583-1619)
chain: ISNPTNFNHVAHMGPGDGMQVLMDLPLSAVPPSQEER
B3: CRIB_(PAK6)-CFP-FT (domain or fragment, UniProt Q9NQU5 11-55)
chain: EISAPQNFQHRVHTSFDPKEGKFVGLPPQWQNILDTLRRPKPVVD
B4: CRIB_(PAK7)-CFP-FT (domain or fragment, UniProt Q9P286 11-55)
chain: ISGPSNFEHRVHTGFDPQEQKFTGLPQQWHSLLADTANRPKPMVD
B5: RBD_(DIAPH3)-CFP-FT (domain or fragment, UniProt Q9NSV4 118-287)
chain: SENELLELFEKMMEDMNLNEDKKAPLREKDFSIKKEMVMQYINTASKTGSLKRSRQISPQEFIHELKMGSADERLVTCLESLRVSLTSNPVSWVESFGHEGLGLLLDILEKLISGKIQEKVVKKNQHKVIQCLKALMNTQYGLERIMSEERSLSLLAKAVDPRHPNMMTD
B6: RBD_(DIAPH2)-CFP-FT (domain or fragment, UniProt O60879 88-272)
chain: PAAQPLYDERSLNLSEKEVLDLFEKMMEDMNLNEEKKAPLRNKDFTTKREMVVQYISATAKSGGLKNSKHECTLSSQEYVHELRSGISDEKLLNCLESLRVSLTSNPVSWVNNFGHEGLGLLLDELEKLLDKKQQENIDKKNQYKLIQCLKAFMNNKFGLQRILGDERSLLLLARAIDPKQPNMM
B7: CRIB_(PAK4)-CFP-FT (domain or fragment, UniProt O96013 10-55)
chain: EISAPSNFEHRVHTGFDQHEQKFTGLPRQWQSLIEESARRPKPLVD
B8: RBD_(DAAM2)-CFP-FT (domain or fragment, UniProt Q86T65 41-229)
chain: PIPNAEELNIRFAELVDELDLTDKNREAMFALPPEKKWQIYCSKKKEQEDPNKLATSWPDYYIDRINSMAAMQSLYAFDEEETEMRNQVVEDLKTALRTQPMRFVTRFIELEGLTCLLNFLRSMDHATCESRIHTSLIGCIKALMNNSQGRAHVLAQPEAISTIAQSLRTENSKTKVAVLEILGAVCLV
B9: RBD_(MRCKα)-CFP-FT (domain or fragment, UniProt Q5VT25 1558-1593)
chain: REMLRDPEMRNKLISNPTNFNHIAHMGPGDGIQILK

One assay addresses DsRed-RhoA (Q63L, ΔCAAX) (UniProt P61586). Put plainly: INSPECT (co-condensation of proteins fused to a tetrameric RFP and to ferritin, imaged in living cells); DsRed-small GTPase (bait) and effector-CFP-FT (prey) co-transfected; co-localized condensates counted; efficiency, SNR and protein interaction index (PI).
On to B1, for which the binding result is reported as “binds”.

Another assay deals with DsRed-Cdc42h (Q61L, ΔCAAX) (UniProt P60953). Described as above.
Take B2: the binding entry is listed as “binds”. Still for that read-out and setting: as for B3, the entry is “binds”; as for B4, “binds”. On the same count and under the same terms, as for B5, the entry is “binds”. Still for that read-out and setting: as for B6, the entry is “binds”; as for B7, “binds”; as for B8, “binds”.

In the case of B1, the binding result was “binds weakly”. Still for that read-out and setting: as for B9, the entry is “binds”.

The values above are taken from PMC12579213.
